{"source": "patent US20250009856A1", "about": "“METHODS FOR TREATING RESPIRATORY DISEASES” (MUCPharm Pty Ltd, priority 2021, published 2025)", "key": {"[1]": {"assay": "Concentration of bromelain and acetylcysteine in sputum after aerosol", "details": "AS"}, "[2]": {"assay": "Concentration of bromelain and acetylcysteine in sputum after aerosol", "set-up": "species or system human", "details": "SS"}, "[3]": {"details": "nebulised NAC 10 mg/ml over 25 minutes"}, "[4]": {"details": "nebulised NAC 20 mg/ml over 25 minutes"}}, "note": "Where “and” joins values, the source holds several entries; their conditions need not be identical. Equal entries are not always repeated."}
{"compound": "CC(=O)N[C@@H](CS)C(=O)O", "note": "[NAC, N-acetylcysteine]", "values": [{"measurement": "Concentration of NAC in sputa", "setting": "[1]; [3]", "result": "2.75 ± 0.143", "unit": "mg/mL"}, {"measurement": "Concentration of NAC in sputa", "setting": "[1]; [4]", "result": "2.90 ± 0.210", "unit": "mg/mL"}, {"measurement": "Concentration of NAC in sputa", "setting": "[2]; [3]", "result": "1.85 mg/mL and 1.85 ± 0.310 mg/mL"}, {"measurement": "Concentration of NAC in sputa", "setting": "[2]; [4]", "result": "2.37 mg/mL and 2.367 ± 0.133 mg/mL"}]}
